This test deals with BDF1 mice, L1210/MTX-resistant leukemia ip, survival T/C. Nature of the test: NCI In Vivo Anticancer Drug Screen. Data for tumor model L1210 Leukemia resistant to Methotrexate; NSC 740 (intraperitoneal) in B6D2F1 (BDF1) mice. The following applies: T/C endpoint: mean survival time, higher T/C = longer survival. The protocol: The antitumor activity of compounds was measured in mice bearing transplantable tumors. Survival or tumor size were measured and the results are expressed as the measurement made in the treated group (T) divided by the measurement made in the vehicle treated control group (C). The tumor model used in this assay is L1210 Leukemia resistant to Methotrexate; NSC 740 (intraperitoneal) in B6D2F1 (BDF1) mice

Setting [1] is: dose: 2.5 mg/kg/injection, schedule: Q01DX Z (ip), vehicle: saline.
The mark [2] stands for this setting: dose: 5.0 mg/kg/injection, schedule: Q01DX Z (ip), vehicle: saline.
The mark [3] stands for this setting: dose: 20.0 mg/kg/injection, schedule: Q01DX Z (ip), vehicle: saline.
Setting [4] is: dose: 25.0 mg/kg/injection, schedule: Q01DX Z (ip), vehicle: carboxymethylcellulose (CMC).
[5] abbreviates: dose: 200.0 mg/kg/injection, schedule: Q01DX Z (ip), vehicle: carboxymethylcellulose (CMC).
Setting [6] is: dose: 25.0 micrograms/kg/injection, schedule: Q01DX Z (ip), vehicle: saline.
The mark [7] stands for this setting: dose: 40.0 mg/kg/injection, schedule: Q01DX Z (ip), vehicle: carboxymethylcellulose (CMC).
Setting [8] is: dose: 80.0 mg/kg/injection, schedule: Q01DX Z (ip), vehicle: carboxymethylcellulose (CMC).
[9] abbreviates: dose: 50.0 mg/kg/injection, schedule: Q01DX Z (ip), vehicle: other.
The mark [10] stands for this setting: dose: 12.5 mg/kg/injection, schedule: Q01DX Z (ip), vehicle: methylcellulose (MC).

The list is a part of this screen's results and no random one: it gathers tests that were run many times, whatever their T/C, doses with no T/C, and many T/C values between a quarter and a half above the control. Other doses and runs of a compound stand elsewhere. T/C is the treated group as % of the vehicle group. Some entries give survivors of the animals treated and no T/C: the source holds a T/C of zero for them, seemingly a mark for toxic or unscored doses. Some doses without a T/C left all or most animals alive at the check, yet need not have been tolerated: survival well below the control is almost never listed, so the zero probably covers shortened survival too. Survivors were counted at the toxicity check, usually on the fifth day, unless a day is given; later deaths do not show. Schedules are NCI's codes, taken here to give the interval after Q, in days (D) or hours (H), and the number of doses after X. Some entries were tested several times; the values are given in rising order. Some schedules carry Z or #; the key to these is not given. Where survival is the endpoint, the PubChem record calls one and a half times the control and up active, and a quarter to a half above the control has no call in these data; cut-offs in other NCI protocols can differ. Brackets with × count equal records among those shown. Some T/C values carry the count of animals alive at the toxicity check (mostly the fifth day); without a count, all were alive then. Starred links: 1 amine or outer side, 2 acyl side, 3 side chain; linkers in the order of their positions; H or OH if unused. Positions of bridges follow the written chain, without caps; N, C: chain ends. Non-standard residues stand in square brackets, D forms with d. Residues, ends and D or L forms follow the SMILES beside them. Chains are numbered I, II in the order given. Actinocin(9to1) = Cc1c2oc3c(C)ccc(C(=O)[*:1])c3nc-2c(C(=O)[*:2])c(N)c1=O; aThr = C[C@H](O)[C@H](N)C(=O)O; NMeV = CN[C@H](C(=O)O)C(C)C; Sar = CNCC(=O)O

As for `C[C@]12CC[C@H](OC3OC(CO)C(O)C(O)C3O)C[C@H]1CC[C@@H]1[C@@H]2CC[C@]2(C)[C@@H](C3=CCOC3=O)CC[C@]12O` (stereo partly drawn), the survivor count runs as follows: (dose: 0.25 mg/kg/injection, schedule: Q01DX Z (ip), vehicle: saline) 4 of 6; (dose: 0.5 mg/kg/injection, schedule: Q01DX Z (ip), vehicle: saline) 0 of 6; (dose: 1.0 mg/kg/injection, schedule: Q01DX Z (ip), vehicle: saline) 0 of 6; (dose: 2.0 mg/kg/injection, schedule: Q01DX Z (ip), vehicle: saline) 6 of 6; (dose: 4.0 mg/kg/injection, schedule: Q01DX Z (ip), vehicle: saline) 5 of 6.

`NC(=O)N(CCCl)N=O`: the T/C is, setting by setting: (dose: 1.0 mg/kg/injection, schedule: Q01DX010 (ip), vehicle: saline) 141 % of control; (dose: 2.0 mg/kg/injection, schedule: Q01DX010 (ip), vehicle: saline) 133 % of control.

Regarding `N=[N+]=CC(=O)OCC(N)C(=O)O` (stereo not drawn), the T/C reads like this: under setting [1], 135 % of control; under setting [2], 131 % of control (2×); (dose: 10.0 mg/kg/injection, schedule: Q01DX Z (ip), vehicle: saline) 134 % of control; under setting [3], 106, 107, 121 % of control. Moreover, the survivor count under setting [3] is recorded as 4 of 6.

As to `Nc1ncnc2[nH]ncc12`, the survivor count (dose: 12.0 mg/kg/injection, schedule: Q01DX010 (ip), vehicle: saline) is listed as 6 of 6.

Take `CN(C)c1ccc(/C=C/c2ccnc3ccccc23)cc1`: the T/C (dose: 0.62 mg/kg/injection, schedule: Q01DX Z (ip), vehicle: saline) is 125 % of control and the T/C (dose: 1.25 mg/kg/injection, schedule: Q01DX Z (ip), vehicle: saline) was 126 % of control. Besides, the survivor count was 6 of 6 (dose: 20.0 mg/kg/injection, schedule: Q01DX010 (ip), vehicle: saline); 6 of 6 (dose: 25.0 mg/kg/injection, schedule: Q01DX Z (ip), vehicle: saline); 6 of 6 (dose: 40.0 mg/kg/injection, schedule: Q01DX010 (ip), vehicle: saline); 6 of 6 (dose: 50.0 mg/kg/injection, schedule: Q01DX Z (ip), vehicle: saline); 5 of 6 (dose: 75.0 mg/kg/injection, schedule: Q01DX Z (ip), vehicle: saline); 1 of 6 (dose: 100.0 mg/kg/injection, schedule: Q01DX Z (ip), vehicle: saline).

Regarding `O=C(O)CCCc1ccc(N(CCCl)CCCl)cc1`, the survivor count (dose: 50.0 mg/kg/injection, schedule: Q01DX Z (ip), vehicle: carboxymethylcellulose (CMC)) was 0 of 6.

With `O=C(Nc1ccc(C2=NCCCN2)cc1)c1ccc(NC(=O)c2ccc(C3=NCCCN3)cc2)cc1`, under “dose: 2.0 mg/kg/injection, schedule: Q01DX010 (ip), vehicle: other”, the T/C is 130 % of control. For the same compound, the survivor count is 5 of 6 and 6 of 6 (dose: 16.0 mg/kg/injection, schedule: Q01DX010 (ip), vehicle: other); 0 of 6 (dose: 32.0 mg/kg/injection, schedule: Q01DX010 (ip), vehicle: other).

`CN(C)C(=S)N=Nc1c(O)[nH]c2ccccc12`: the T/C under setting [4] is 133 % of control. The survivor count under setting [5] is listed as 5 of 6.

Regarding `Cc1c2oc3c(C)ccc(C(=O)N[C@@H]4C(=O)N[C@H](C(C)C)C(=O)N5CCC[C@H]5C(=O)N(C)CC(=O)N(C)[C@@H](C(C)C)C(=O)O[C@H]4C)c3nc-2c(C(=O)N[C@@H]2C(=O)N[C@H](C(C)C)C(=O)N3CCC[C@H]3C(=O)N(C)CC(=O)N(C)[C@@H](C(C)C)C(=O)O[C@H]2C)c(N)c1=O` (I: [aThr][dV]P[Sar][NMeV] / II: [aThr][dV]P[Sar][NMeV]; ester I:1-I:C, II:1-II:C; linker I:N-II:N via Actinocin(9to1)), the survivor count runs as follows: (dose: 0.05 mg/kg/injection, schedule: Q01DX Z (ip), vehicle: saline) 0 of 6; (dose: 0.1 mg/kg/injection, schedule: Q01DX Z (ip), vehicle: saline) 0 of 6; (dose: 6.3 micrograms/kg/injection, schedule: Q01DX Z (ip), vehicle: saline) 5 of 6; under setting [6], 6 of 6; (dose: 125.0 micrograms/kg/injection, schedule: Q01DX Z (ip), vehicle: saline) 6 of 6. Further, the T/C was 125 % of control (dose: 12.0 micrograms/kg/injection, schedule: Q01DX Z (ip), vehicle: saline); 139 and 148 % of control under setting [6].

As for `S=P(N1CCOCC1)(N1CC1)N1CC1`, the survivor count by setting is: (dose: 4.0 mg/kg/injection, schedule: Q01DX Z (ip), vehicle: carboxymethylcellulose (CMC)) 6 of 6; under setting [7], 6 of 6; under setting [8], 6 of 6.

As to `Nc1nc(N)c2nc(CNc3ccc(C(=O)NC(CCC(=O)O)C(=O)O)cc3)cnc2n1` (stereo not drawn), the survivor count was 6 of 6 (dose: 0.05 mg/kg/injection, schedule: Q01DX010 (ip), vehicle: other) and 6 of 6 (dose: 0.4 mg/kg/injection, schedule: Q01DX010 (ip), vehicle: other).

As for `Cn1c(O)c(N=NC(N)=S)c2ccccc21`, the survivor count is reported as 6 of 6 under setting [4] and 6 of 6 under setting [5].

`C=CC(CN1CC1)OC(C)=O` (stereo not drawn): the T/C reads like this: (dose: 4.0 mg/kg/injection, schedule: Q01DX010 (ip), vehicle: saline) 128 % of control; (dose: 8.0 mg/kg/injection, schedule: Q01DX010 (ip), vehicle: saline) 132 % of control. For the same compound, the survivor count (dose: 16.0 mg/kg/injection, schedule: Q01DX010 (ip), vehicle: saline) is 5 of 6.

`O=CCC(O)C(O)C(O)CO` (stereo not drawn): the T/C reads like this: under setting [1], 130 % of control; under setting [2], 131 % of control.

Take `CCCNc1ncnc2[nH]ncc12`: under “dose: 25.0 mg/kg/injection, schedule: Q01DX010 (ip), vehicle: saline”, the survivor count is recorded as 6 of 6.

For `S=c1nc[nH]c2nc[nH]c12`, the T/C is 125 % of control (dose: 10.0 mg/kg/injection, schedule: Q01DX Z (ip), vehicle: alkali diluted with saline); 130 % of control (dose: 24.0 mg/kg/injection, schedule: Q01DX Z (ip), vehicle: carboxymethylcellulose (CMC)); 92, 98, 106 % of control under setting [9]. Also, the survivor count was 0 of 6 and 2 of 6 under setting [9]; 0 of 6 (dose: 100.0 mg/kg/injection, schedule: Q01DX Z (ip), vehicle: other).

`Clc1ncnc2nc[nH]c12`: the survivor count is 6 of 6 (dose: 7.5 mg/kg/injection, schedule: Q01DX010 (ip), vehicle: saline) and 6 of 6 (dose: 60.0 mg/kg/injection, schedule: Q01DX010 (ip), vehicle: saline).

`CCN(CC)CCNc1ccc(C)c2sc3ccccc3c(=O)c12`: the survivor count is given as 6 of 6 (dose: 6.3 mg/kg/injection, schedule: Q01DX Z (ip), vehicle: methylcellulose (MC)); 6 of 6 under setting [10]; 3 of 6 (dose: 25.0 mg/kg/injection, schedule: Q01DX Z (ip), vehicle: methylcellulose (MC)); 1 of 6 (dose: 50.0 mg/kg/injection, schedule: Q01DX Z (ip), vehicle: methylcellulose (MC)); 2 of 6 (dose: 100.0 mg/kg/injection, schedule: Q01DX Z (ip), vehicle: methylcellulose (MC)). For the same compound, the T/C by setting is: under setting [10], 126 % of control [4 of 6 alive]; (dose: 20.0 mg/kg/injection, schedule: Q01DX Z (ip), vehicle: carboxymethylcellulose (CMC)) 140 % of control; under setting [7], 126 % of control; under setting [8], 130 % of control.

For the origin of these results see PubChem BioAssay AID284 (DTP/NCI, 2004).
